No constants are given. Whether binding was seen depends on the method and setting. In cells and extracts the contact can be indirect. A yes stands for co-enrichment or nearness to the bait. Other partners may have been found.
Tests used:
[1] = biological target: STAT5 (mouse (endogenous in cultured HSPCs and bone marrow cells)); assay: affinity purification with mass spectrometry; anti-STAT5 antibody (10 uL/mg) or rabbit IgG, Dynabeads; bone marrow cells stimulated with IL-3 (20 ng/mL), cross-linked with disuccinimidyl dibutyric urea (1 mM, 10 minutes) before lysis; overnight at 4°C; mass spectrometry
[2] = biological target: T1, LRRC41 (mouse (endogenous in cultured HSPCs and bone marrow cells)) (UniProt Q8K1C9); assay: affinity purification with mass spectrometry; anti-LRRC41 antibody (4 ug/mg) or rabbit IgG, Dynabeads; WT bone marrow cells stimulated with IL-3 (20 ng/mL), cross-linked with disuccinimidyl dibutyric urea (1 mM, 10 minutes) before lysis; overnight at 4°C; mass spectrometry
T1 sequence: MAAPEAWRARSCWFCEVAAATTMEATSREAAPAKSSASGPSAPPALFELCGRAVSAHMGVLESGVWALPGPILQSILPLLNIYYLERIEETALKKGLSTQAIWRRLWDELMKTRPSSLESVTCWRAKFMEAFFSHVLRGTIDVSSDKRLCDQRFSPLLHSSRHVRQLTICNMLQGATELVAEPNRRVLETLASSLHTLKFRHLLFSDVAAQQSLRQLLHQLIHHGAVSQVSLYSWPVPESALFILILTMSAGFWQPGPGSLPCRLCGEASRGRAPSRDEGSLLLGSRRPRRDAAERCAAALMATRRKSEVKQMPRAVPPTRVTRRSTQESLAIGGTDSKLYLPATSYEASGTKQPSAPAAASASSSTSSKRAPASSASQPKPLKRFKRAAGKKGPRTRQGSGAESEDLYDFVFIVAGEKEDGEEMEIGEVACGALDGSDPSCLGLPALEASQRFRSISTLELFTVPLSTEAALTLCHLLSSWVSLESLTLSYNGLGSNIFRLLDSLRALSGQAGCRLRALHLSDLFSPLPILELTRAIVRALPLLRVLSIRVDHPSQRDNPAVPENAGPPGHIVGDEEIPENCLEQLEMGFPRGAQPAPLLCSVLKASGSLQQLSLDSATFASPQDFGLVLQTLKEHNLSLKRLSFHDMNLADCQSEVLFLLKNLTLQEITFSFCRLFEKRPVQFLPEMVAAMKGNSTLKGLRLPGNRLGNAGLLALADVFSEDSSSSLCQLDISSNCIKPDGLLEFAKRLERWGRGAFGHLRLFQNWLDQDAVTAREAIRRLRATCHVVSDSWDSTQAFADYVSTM

Protein sequences, listed by entry. Tags and fused reporters are not part of them.
UniProt Q9D5V5: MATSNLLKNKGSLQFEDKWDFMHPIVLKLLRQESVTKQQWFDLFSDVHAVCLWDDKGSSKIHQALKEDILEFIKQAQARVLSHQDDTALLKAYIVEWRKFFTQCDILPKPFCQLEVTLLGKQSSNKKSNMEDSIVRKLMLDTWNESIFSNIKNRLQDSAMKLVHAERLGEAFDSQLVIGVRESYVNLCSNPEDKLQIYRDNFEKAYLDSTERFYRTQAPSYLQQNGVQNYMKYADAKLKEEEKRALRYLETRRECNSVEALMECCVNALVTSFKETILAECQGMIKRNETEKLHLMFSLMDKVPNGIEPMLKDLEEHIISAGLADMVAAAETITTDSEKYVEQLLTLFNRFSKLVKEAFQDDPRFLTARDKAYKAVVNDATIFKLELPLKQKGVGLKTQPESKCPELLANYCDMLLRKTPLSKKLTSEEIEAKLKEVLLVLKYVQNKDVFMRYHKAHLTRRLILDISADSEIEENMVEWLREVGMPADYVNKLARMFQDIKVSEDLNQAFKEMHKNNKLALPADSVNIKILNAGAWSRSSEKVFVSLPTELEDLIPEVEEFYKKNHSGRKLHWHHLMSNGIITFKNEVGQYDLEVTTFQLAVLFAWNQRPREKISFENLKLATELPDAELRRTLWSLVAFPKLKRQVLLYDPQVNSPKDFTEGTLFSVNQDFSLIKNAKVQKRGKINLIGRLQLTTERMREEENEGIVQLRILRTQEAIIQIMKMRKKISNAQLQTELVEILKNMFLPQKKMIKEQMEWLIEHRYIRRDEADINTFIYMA

[3] = biological target: Cullin 5 (mouse (endogenous in cultured HSPCs and bone marrow cells)) (UniProt Q9D5V5); assay: affinity purification with mass spectrometry; anti-CUL5 antibody (4 ug/mg) or rabbit IgG isotype control, Dynabeads; lysate (1% NP-40, 100 mM NaCl, 50 mM Tris-HCl) of HSPCs expanded from WT CD34lo HSCs with TPO, SCF and IL-3, bortezomib 50 nM for 2 hours before harvest; overnight at 4°C; tandem mass spectrometry

binding [1]: binds
binding [2]: binds
binding [3]: binds
B1: LTA4H (protein, UniProt P24527 1-611)
chain: MPEVADTCSLASPASVCRTQHLHLRCSVDFARRTLTGTAALTVQSQEENLRSLTLDTKDLTIEKVVINGQEVKYTLGESQGYKGSPMEISLPIALSKNQEIVIEISFETSPKSSALQWLTPEQTSGKQHPYLFSQCQAIHCRAILPCQDTPSVKLTYTAEVSVPKELVALMSAIRDGEAPDPEDPSRKIYRFNQRVPIPCYLIALVVGALESRQIGPRTLVWSEKEQVEKSANEFSETESMLKIAEDLGGPYVWGQYDLLVLPPSFPYGGMENPCLTFVTPTLLAGDKSLSNVIAHEISHSWTGNLVTNKTWDHFWLNEGHTVYLERHICGRLFGEKFRHFHALGGWGELQNTIKTFGESHPFTKLVVDLKDVDPDVAYSSIPYEKGFALLFYLEQLLGGPEVFLGFLKAYVKKFSYQSVTTDDWKSFLYSHFKDKVDLLNQVDWNTWLYAPGLPPVKPNYDVTLTNACIALSQRWVTAKEEDLSSFSIADLKDLSSHQLNEFLAQVLQKAPLPLGHIKRMQEVYNFNAINNSEIRFRWLRLCIQSKWEEAIPLALKMATEQGRMKFTRPLFKDLAAFDKSHDQAVHTYQEHKASMHPVTAMLVGRDLKVD

Source: PMC12404750
